Test results from patent publication US11773096B2, “Small-molecule PI5P4K alpha/beta inhibitors and methods of treatment using same” (YALE UNIVERSITY, priority 2018, dated 2023).
At least one structure is not confirmed: it was looked up by name or label, or the drawing left a doubt.

Test system: C2Cl2 myotubes
Test: Immunoblot analysis of signaling in C2Cl2 myotubes
Assay type: cell-based, mouse
Settings: FIG. 3D
Protocol: BT-474 and MCF7 breast cancer cells, C2Cl2 mouse myoblast cells, and HEK 293T cells were maintained in high-glucose DMEM medium containing 10% FBS. L6 rat myoblast cells were maintained in α-MEM medium containing 10% FBS. For differentiation into myotubes, C2Cl2 cells were kept in DMEM medium containing 2% horse serum for 5 days, and L6 cells were kept in α-MEM medium containing 2% FBS for 7 days. Amino-acid-free DMEM medium was prepared using powder from USBio, and MEM amino acids solution was from Gibco. Media were all supplemented with 100 U/ml penicillin/streptomycin. Cell lines were purchased from ATCC.
After wash with cold DPBS buffer, cells were lysed in RIPA buffer that contained 50 mM Tris-HCl pH 8.0, 150 mM NaCl, 1 mM EDTA, 1 mM EGTA, 1% NP-40, 0.5% sodium deoxycholate, 0.1% SDS, and protease and phosphatase inhibitor cocktails (Roche). Total protein concentrations were measured using a BCA assay (Thermo scientific). Cell lysate (about 80 μg protein) was resolved by SDS-PAGE and blotted onto PVDF membranes. The membranes were probed overnight at 4° C. with appropriate primary antibodies (Cell Signaling Technology) and incubated with secondary fluorescent antibodies (LI-COR Biosciences) for 1 hr at room temperature before imaging by an Odyssey CLx system.

Compound: CO[C@H]1C[C@@H]2CC[C@@H](C)[C@@](O)(O2)C(=O)C(=O)N2CCCC[C@H]2C(=O)O[C@H]([C@H](C)C[C@@H]2CC[C@@H](O)[C@H](OC)C2)CC(=O)[C@H](C)/C=C(\C)[C@@H](O)[C@@H](OC)C(=O)[C@H](C)C[C@H](C)/C=C/C=C/C=C/1C [Rapamycin, reference compound]
- IRS phosphorylation at Ser-302: almost eliminates
- Akt phosphorylation (comparison 7a vs rapamycin): only modestly increased
